Article PMC11239919
Results are given in words; binding and its absence hold for the method and conditions named. In cells and extracts the contact can be indirect. Some entries that bind do so weakly or less than the wild type.

Amino acid sequences for entries named in this document (tags omitted). A change or cut given only in a name is not applied to a line headed by its entry. Chains listed by the source or under a name are the forms on record and can include a tag or linker. Residues count along the entry.
UniProt P08195, residues 102-630: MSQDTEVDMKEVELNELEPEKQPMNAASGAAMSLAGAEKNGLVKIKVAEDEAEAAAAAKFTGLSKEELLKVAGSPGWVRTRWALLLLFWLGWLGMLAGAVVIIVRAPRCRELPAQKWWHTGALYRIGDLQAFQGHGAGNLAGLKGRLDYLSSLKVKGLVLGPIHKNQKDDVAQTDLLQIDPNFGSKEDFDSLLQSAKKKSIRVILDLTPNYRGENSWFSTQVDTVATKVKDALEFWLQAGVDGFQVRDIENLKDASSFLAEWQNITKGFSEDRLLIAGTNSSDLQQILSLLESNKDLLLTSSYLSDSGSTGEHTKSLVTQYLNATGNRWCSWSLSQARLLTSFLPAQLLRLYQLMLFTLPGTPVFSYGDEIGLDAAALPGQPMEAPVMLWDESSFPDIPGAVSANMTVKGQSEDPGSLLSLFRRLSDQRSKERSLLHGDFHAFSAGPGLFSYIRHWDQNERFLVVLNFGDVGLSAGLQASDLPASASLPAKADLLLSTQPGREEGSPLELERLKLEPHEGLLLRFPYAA
Anaplastic Lymphoma Kinase (ALK) receptor tyrosine kinase, wild type, endogenous in NB1 cells (Q9UM73, residues 19-1620): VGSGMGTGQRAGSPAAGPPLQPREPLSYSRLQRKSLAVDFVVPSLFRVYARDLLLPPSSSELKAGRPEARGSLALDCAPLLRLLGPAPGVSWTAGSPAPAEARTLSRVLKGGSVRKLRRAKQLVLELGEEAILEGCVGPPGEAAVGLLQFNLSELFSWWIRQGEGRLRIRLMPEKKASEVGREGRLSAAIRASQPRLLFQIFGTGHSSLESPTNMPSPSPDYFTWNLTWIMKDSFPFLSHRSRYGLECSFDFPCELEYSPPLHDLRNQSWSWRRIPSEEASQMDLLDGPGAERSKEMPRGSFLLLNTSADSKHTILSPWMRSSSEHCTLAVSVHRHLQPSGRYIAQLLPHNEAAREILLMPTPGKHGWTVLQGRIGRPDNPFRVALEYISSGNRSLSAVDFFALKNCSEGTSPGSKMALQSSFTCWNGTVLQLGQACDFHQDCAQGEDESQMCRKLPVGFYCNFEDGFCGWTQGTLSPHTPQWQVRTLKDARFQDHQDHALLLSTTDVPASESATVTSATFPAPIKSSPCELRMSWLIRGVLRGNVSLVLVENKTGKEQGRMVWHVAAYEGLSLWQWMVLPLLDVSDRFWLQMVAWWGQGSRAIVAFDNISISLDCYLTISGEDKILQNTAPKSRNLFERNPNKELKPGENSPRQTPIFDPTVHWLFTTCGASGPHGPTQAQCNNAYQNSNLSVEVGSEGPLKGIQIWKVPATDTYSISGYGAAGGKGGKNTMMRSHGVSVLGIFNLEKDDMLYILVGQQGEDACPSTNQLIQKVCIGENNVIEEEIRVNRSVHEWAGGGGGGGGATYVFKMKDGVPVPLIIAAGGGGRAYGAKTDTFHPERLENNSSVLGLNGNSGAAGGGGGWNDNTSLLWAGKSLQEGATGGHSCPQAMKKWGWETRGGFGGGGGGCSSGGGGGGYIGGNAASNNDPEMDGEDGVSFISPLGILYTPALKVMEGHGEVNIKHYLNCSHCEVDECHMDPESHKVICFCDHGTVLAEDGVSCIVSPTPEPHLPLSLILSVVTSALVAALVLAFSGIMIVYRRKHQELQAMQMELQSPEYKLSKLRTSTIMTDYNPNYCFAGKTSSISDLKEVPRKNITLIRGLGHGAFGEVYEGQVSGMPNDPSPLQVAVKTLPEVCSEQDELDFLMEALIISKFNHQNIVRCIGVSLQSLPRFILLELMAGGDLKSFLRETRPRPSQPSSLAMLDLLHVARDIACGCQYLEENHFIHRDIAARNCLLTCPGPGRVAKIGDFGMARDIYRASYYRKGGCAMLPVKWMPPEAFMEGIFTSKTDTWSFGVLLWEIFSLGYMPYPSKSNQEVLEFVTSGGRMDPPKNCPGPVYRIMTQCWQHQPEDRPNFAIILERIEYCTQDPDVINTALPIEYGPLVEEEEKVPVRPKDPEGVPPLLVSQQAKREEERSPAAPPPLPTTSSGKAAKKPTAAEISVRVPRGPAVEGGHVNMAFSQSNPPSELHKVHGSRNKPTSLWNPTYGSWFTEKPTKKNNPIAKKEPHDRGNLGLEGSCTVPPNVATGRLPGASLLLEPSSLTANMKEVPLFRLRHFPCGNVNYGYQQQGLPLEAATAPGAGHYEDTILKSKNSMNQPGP
Anaplastic Lymphoma Kinase (ALK) F1174V, endogenous in CLB-GE cells (Q9UM73, form named): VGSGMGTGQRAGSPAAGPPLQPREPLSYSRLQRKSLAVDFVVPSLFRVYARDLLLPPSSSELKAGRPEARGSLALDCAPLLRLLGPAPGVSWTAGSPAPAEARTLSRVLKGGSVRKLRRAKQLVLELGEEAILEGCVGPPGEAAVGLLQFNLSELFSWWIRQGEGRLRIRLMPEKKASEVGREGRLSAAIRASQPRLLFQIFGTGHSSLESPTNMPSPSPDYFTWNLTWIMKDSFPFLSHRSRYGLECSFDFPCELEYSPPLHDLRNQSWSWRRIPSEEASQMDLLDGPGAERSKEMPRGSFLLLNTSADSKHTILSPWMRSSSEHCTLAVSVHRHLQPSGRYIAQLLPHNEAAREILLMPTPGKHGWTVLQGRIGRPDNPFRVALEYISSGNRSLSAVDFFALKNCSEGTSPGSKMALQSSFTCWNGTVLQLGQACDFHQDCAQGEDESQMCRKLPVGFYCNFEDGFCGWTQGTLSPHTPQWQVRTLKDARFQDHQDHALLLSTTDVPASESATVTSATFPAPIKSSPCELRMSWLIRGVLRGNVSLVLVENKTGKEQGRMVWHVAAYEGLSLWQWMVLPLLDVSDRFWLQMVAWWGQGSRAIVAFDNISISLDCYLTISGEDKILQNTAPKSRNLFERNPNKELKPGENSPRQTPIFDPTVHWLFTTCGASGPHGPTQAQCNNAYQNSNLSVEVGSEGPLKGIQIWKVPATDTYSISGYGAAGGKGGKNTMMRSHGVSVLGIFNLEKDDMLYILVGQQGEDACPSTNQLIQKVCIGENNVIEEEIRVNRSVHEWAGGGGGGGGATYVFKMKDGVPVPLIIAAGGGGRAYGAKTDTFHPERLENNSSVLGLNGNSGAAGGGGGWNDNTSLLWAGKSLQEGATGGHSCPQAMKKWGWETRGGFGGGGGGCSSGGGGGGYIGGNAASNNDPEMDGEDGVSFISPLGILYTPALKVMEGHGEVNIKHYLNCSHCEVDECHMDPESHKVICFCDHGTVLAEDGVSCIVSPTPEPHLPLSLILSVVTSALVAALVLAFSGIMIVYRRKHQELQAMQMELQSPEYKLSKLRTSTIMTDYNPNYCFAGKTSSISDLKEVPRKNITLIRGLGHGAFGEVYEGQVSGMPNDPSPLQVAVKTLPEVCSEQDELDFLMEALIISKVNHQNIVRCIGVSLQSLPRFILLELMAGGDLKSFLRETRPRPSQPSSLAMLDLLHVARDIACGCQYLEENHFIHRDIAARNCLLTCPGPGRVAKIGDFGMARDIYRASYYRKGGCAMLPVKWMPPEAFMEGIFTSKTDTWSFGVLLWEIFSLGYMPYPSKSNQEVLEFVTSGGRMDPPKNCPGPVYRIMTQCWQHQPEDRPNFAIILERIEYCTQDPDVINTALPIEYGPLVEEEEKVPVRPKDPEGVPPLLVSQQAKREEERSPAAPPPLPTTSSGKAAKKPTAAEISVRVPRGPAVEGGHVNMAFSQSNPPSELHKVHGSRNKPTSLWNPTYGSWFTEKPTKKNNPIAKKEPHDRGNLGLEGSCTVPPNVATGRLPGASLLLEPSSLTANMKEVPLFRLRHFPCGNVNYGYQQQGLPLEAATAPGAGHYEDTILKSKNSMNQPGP
UniProt Q01650: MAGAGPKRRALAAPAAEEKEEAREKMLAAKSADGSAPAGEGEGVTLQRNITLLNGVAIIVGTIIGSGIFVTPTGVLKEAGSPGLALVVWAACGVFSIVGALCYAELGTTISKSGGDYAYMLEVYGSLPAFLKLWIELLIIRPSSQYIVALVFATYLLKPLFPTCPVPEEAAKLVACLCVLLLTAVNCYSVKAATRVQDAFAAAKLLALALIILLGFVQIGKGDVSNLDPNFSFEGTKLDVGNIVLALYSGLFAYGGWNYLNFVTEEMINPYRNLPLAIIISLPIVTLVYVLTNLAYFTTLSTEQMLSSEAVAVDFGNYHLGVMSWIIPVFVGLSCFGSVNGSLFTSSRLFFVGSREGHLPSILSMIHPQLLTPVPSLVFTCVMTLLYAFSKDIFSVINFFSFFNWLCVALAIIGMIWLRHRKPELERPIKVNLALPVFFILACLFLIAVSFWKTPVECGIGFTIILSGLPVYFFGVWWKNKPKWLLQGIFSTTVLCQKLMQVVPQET

Columns and labels:
[1] = biological target: Solute Carrier Family 3 (activators of dibasic and neutral amino acid transport), Member 2 (human (endogenous in NB1, CLB-GE, CLB-BAR)) (UniProt P08195); assay: co-IP; endogenous proteins; 300 µg lysate (IP buffer: 150 mM NaCl, 50 mM Tris-HCl, 1% Triton X-100, 1% glycerol) with 3 µg anti-ALK or anti-SLC3A2 overnight at 4 °C, Protein G Sepharose, washes with 500 mM NaCl buffer; immunoblot; NB1 cells treated with ALKAL2 (1 µg/ml); no lorlatinib
[2] = biological target: Solute Carrier Family 3 (activators of dibasic and neutral amino acid transport), Member 2 (human (endogenous in NB1, CLB-GE, CLB-BAR)) (UniProt P08195); assay: co-IP; Sup. Fig. 1C; cell line and precipitating antibody not told in the text shown
[3] = biological target: Solute Carrier Family 3 (activators of dibasic and neutral amino acid transport), Member 2 (human (endogenous in NB1, CLB-GE, CLB-BAR)) (UniProt P08195); assay: co-IP; endogenous proteins; 300 µg lysate (IP buffer: 150 mM NaCl, 50 mM Tris-HCl, 1% Triton X-100, 1% glycerol) with 3 µg anti-ALK or anti-SLC3A2 overnight at 4 °C, Protein G Sepharose, washes with 500 mM NaCl buffer; immunoblot; NB1 cells treated with ALKAL2 (1 µg/ml); no lorlatinib; remark: listed apart in the source

| binding [1] | Molecule | other results |
| --- | --- | --- |
| binds | Anaplastic Lymphoma Kinase (ALK) receptor tyrosine kinase, wild type, endogenous in NB1 cells (from UniProt Q9UM73 19-1620) | – |
| – | SLC7A5 (from UniProt Q01650 1-507) | binding [2]: binds |
| binds | Anaplastic Lymphoma Kinase (ALK) F1174V, endogenous in CLB-GE cells (from UniProt Q9UM73 19-1620) (receptor) | – |
| – | MARCH11 E3 ligase, endogenous in CLB-BAR cells (enzyme, UniProt A6NNE9 1-402) MSFEGGHGGSRCRGAESGDAEPPPQPPPPPPPTPPPGEPAPVPAAPRYLPPLPASPETPERAAGPSEPLGEVAPRCRGADELPPPPLPLQPAGQEVAAAGDSGEGPRRLPEAAAAKGGPGESEAGAGGERERRGAGDQPETRSVCSSRSSSSGGGDQRAGHQHQHHQPICKICFQGAEQGELLNPCRCDGSVRYTHQLCLLKWISERGSWTCELCCYRYHVIAIKMKQPCQWQSISITLVEKVQMIAVILGSLFLIASVTWLLWSAFSPYAVWQRKDILFQICYGMYGFMDLVCIGLIVHEGAAVYRVFKRWRAVNLHWDVLNYDKATDIEESSRGESSTSRTLWLPLTALRNRNLVHPTQLTSPRFQCGYVLLHLFNRMRPHEDLSEDNSSGEVVMRVTSV | binding [3]: binds |
